In the supplement of paper PMC12823440, “Inhibitors supercharge kinase turnover through native proteolytic circuits” (Nature, 2025):
Where a name gives a salt, the structure may show the parent alone. This is one part of the list. The calls rarely recur for the same compound in another form.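 Kinases, fused to nanoluciferase, were expressed in K562 cells; luminescence was measured every 4 h from 2 to 18 h as percent of control (DMSO = 100%, positive control = 0%). A time point is decreased if signal falls significantly (2 sigma). Hits were called by the authors by a rule that is not shown; the count of time points alone does not decide it.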

The chains behind the UniProt entries cited, without tags or fusion partners. Where a name states a change or a piece, a line headed by the entry shows the natural chain unless it says otherwise.
UniProt Q96KB5: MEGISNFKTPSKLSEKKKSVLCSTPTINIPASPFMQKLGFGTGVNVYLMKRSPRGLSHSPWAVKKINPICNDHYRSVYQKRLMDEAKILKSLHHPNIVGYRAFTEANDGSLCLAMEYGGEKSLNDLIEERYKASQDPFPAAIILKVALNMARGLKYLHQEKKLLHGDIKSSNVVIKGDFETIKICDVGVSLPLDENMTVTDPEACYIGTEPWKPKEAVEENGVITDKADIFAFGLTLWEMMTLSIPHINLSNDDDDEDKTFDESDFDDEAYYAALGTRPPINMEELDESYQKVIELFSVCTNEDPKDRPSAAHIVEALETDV
UniProt P09619, whole entry: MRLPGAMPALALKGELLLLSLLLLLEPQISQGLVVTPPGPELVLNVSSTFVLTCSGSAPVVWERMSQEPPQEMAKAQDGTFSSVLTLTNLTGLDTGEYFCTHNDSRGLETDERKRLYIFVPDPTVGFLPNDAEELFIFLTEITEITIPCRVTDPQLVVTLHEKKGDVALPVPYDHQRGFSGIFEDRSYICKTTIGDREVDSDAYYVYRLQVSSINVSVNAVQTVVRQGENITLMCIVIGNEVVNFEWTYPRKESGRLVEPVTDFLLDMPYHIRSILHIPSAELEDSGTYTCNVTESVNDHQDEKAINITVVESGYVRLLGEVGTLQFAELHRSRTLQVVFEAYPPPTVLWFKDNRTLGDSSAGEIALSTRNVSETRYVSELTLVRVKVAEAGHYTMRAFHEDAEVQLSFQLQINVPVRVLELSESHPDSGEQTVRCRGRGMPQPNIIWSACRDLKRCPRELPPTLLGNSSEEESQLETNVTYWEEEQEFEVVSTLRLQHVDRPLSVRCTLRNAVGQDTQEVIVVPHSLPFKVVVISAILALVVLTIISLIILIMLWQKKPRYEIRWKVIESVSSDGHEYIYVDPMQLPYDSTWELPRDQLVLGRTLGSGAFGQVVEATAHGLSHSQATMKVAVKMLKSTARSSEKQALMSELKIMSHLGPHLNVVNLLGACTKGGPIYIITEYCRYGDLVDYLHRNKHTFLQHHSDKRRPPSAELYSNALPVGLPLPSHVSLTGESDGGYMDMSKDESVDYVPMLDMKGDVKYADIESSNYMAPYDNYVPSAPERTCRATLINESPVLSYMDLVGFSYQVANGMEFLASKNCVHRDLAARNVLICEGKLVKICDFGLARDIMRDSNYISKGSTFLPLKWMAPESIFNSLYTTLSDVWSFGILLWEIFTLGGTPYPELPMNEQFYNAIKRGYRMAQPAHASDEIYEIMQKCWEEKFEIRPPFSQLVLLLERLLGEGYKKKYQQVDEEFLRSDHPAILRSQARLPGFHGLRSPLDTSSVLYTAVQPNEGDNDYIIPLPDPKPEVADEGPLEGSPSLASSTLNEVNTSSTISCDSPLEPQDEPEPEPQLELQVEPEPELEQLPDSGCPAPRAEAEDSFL
UniProt Q15118, whole entry, looked up: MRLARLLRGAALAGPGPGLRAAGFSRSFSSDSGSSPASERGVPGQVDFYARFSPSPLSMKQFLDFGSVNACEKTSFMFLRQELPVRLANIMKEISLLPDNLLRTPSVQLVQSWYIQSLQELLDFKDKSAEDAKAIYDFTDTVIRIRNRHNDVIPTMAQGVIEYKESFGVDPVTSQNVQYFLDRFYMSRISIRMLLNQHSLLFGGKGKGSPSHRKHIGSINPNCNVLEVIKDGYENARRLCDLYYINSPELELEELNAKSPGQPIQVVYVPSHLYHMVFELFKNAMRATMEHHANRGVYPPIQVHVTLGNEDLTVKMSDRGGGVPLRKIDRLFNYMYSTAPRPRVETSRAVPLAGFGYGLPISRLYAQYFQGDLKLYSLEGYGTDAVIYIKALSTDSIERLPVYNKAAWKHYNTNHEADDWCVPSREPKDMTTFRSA
UniProt Q9UBF8: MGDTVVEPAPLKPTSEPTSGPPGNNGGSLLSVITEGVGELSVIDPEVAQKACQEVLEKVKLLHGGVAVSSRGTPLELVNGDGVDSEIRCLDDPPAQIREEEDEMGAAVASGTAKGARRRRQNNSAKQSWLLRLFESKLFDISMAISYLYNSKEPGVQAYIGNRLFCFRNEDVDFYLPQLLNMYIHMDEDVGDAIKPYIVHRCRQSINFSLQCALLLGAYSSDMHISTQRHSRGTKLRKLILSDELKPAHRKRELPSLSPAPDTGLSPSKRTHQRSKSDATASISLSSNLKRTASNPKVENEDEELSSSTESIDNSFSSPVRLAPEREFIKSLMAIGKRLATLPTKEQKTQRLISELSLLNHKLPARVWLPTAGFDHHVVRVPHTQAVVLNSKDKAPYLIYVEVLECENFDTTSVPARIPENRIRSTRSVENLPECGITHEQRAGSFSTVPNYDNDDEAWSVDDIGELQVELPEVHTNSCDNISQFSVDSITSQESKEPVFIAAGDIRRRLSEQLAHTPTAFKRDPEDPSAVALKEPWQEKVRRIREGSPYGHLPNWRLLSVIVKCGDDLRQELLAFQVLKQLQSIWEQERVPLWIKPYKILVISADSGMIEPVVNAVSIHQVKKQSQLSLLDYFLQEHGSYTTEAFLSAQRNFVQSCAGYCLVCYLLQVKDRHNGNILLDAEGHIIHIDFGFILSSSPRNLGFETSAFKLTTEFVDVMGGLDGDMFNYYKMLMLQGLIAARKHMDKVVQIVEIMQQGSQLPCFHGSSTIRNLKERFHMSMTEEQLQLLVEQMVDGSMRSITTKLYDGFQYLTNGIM
UniProt Q14289, whole entry, looked up: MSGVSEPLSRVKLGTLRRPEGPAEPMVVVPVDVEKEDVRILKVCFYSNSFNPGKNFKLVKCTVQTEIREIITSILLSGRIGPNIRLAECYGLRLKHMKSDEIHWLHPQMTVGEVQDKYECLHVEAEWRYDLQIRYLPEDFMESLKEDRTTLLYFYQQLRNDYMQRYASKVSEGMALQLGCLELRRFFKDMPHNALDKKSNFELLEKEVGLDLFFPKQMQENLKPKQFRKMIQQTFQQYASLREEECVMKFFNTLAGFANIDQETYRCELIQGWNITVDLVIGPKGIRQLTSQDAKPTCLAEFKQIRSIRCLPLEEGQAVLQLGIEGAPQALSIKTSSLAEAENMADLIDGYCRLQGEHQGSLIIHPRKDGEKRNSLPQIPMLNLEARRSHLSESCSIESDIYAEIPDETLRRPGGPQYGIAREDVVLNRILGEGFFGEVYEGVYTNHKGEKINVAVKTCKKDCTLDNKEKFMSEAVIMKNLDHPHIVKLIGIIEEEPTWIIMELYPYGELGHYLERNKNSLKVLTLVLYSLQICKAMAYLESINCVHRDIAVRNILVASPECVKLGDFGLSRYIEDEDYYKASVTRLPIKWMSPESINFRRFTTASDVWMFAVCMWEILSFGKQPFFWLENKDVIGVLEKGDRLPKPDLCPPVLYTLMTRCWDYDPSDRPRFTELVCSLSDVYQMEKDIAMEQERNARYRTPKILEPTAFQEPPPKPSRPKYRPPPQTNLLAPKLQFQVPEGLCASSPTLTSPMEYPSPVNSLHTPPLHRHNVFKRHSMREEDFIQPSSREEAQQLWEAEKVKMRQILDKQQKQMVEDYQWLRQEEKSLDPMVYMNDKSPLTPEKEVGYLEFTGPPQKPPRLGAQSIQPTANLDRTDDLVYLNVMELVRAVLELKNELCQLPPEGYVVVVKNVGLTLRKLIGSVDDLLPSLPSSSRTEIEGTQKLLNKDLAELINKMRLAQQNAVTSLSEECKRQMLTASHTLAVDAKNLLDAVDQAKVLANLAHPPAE
UniProt P07949, whole entry, looked up: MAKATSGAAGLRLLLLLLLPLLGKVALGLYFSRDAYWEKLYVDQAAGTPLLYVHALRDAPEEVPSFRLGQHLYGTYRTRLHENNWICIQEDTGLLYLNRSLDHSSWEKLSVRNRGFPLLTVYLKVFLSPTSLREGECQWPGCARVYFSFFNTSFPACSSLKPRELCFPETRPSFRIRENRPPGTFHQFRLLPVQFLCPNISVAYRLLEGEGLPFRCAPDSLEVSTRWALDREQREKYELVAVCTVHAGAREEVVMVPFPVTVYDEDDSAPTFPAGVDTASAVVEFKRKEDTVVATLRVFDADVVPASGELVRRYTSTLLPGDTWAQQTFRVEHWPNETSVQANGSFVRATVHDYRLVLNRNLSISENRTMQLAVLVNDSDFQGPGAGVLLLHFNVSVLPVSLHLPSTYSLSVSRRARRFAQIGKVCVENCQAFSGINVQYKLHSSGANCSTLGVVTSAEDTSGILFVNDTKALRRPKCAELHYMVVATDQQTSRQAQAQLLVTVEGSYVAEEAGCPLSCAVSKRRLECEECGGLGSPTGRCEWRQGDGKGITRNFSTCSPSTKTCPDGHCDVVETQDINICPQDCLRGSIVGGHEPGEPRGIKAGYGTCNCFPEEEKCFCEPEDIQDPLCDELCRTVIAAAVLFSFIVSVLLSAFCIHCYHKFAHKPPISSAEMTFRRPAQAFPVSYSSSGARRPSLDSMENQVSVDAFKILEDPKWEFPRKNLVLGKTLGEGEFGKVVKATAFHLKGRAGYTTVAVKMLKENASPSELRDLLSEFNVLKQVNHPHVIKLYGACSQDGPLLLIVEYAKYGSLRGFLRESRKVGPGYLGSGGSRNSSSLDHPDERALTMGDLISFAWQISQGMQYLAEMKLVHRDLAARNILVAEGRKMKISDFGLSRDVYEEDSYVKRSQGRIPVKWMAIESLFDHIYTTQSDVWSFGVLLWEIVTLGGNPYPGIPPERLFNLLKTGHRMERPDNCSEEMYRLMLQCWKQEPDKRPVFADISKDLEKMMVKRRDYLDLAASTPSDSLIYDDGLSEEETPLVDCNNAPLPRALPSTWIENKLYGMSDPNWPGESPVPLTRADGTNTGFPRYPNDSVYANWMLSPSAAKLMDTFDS
UniProt P07949, whole entry M918T, looked up: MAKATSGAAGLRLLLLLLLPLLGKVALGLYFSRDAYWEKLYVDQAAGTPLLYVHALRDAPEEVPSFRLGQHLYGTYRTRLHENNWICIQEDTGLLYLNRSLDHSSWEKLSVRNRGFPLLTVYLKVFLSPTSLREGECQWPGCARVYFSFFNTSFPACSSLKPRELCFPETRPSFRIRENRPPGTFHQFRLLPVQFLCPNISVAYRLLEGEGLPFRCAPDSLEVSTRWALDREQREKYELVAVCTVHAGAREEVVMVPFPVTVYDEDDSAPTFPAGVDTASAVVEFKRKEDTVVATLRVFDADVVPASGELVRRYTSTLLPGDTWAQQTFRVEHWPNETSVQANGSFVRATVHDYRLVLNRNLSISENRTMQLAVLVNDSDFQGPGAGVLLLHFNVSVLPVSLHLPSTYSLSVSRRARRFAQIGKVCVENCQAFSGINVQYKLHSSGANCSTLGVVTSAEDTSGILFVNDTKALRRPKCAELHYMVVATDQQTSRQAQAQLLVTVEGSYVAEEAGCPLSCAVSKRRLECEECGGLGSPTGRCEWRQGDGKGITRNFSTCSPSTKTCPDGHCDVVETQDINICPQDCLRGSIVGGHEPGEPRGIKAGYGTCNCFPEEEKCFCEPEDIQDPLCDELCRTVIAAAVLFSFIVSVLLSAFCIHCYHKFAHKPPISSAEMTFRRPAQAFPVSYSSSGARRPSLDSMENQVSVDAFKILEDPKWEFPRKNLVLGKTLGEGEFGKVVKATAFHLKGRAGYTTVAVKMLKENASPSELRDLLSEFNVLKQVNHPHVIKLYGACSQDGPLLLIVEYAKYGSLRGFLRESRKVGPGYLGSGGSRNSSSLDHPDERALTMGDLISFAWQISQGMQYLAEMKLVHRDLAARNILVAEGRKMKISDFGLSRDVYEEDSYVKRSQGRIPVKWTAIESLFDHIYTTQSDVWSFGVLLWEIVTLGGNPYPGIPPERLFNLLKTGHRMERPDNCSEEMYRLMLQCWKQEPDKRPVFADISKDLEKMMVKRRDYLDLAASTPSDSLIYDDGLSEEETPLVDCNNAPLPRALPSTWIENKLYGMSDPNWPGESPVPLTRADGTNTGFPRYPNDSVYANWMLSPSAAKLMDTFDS
UniProt Q9BRS2: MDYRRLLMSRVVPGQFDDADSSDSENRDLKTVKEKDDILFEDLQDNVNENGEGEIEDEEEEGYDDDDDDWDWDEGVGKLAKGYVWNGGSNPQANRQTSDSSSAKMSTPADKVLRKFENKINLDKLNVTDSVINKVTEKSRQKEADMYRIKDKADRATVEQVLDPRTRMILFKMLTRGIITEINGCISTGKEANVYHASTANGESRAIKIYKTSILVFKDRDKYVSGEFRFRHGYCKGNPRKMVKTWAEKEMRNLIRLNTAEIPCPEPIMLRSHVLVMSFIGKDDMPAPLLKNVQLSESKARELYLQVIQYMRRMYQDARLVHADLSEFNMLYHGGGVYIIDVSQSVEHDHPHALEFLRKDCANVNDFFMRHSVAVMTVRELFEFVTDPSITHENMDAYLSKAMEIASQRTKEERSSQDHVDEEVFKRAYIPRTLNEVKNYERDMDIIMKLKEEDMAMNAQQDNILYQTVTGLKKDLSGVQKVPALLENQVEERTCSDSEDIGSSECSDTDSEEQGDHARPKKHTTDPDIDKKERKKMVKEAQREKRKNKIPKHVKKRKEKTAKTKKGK

What was measured:
Assay in all cases: number of time points (of 5) at which kinase-Nluc abundance scored as decreased, DMSO-normalised (count); higher = more persistent destabilization
Settings in all cases: K562; 2-18 h
[1] = target: NTRK3 (UniProt Q16288)
[2] = target: PAK4 (UniProt O96013)
[3] = target: PBK (UniProt Q96KB5)
[4] = target: PDGFRB (UniProt P09619)
[5] = target: PDK1 (UniProt Q15118)
[6] = target: PDPK1 (UniProt O15530)
[7] = target: PIK4CA (UniProt P42356)
[8] = target: PIK4CB (UniProt Q9UBF8)
[9] = target: PLK1 (UniProt P53350)
[10] = target: PRKAA1 (UniProt Q13131)
[11] = target: PRKCA (UniProt P17252)
[12] = target: PTK2 (UniProt Q05397)
[13] = target: PTK2B (UniProt Q14289)
[14] = target: RAF1 (UniProt P04049)
[15] = target: RAF1_S257L (clone: RAF1_mut) (UniProt P04049)
[16] = target: RET (UniProt P07949)
[17] = target: RET_M918T (clone: RET_mut) (UniProt P07949)
[18] = target: RIOK1 (UniProt Q9BRS2)
[19] = target: RIPK1 (UniProt Q13546)
[20] = target: RIPK2 (UniProt O43353)

Measured: number of time points

CS(=O)(=O)c1ccc(-c2noc(C(F)(F)F)c2-c2ccccc2)cc1 (10 µM)
0: all assays above

NCc1ccc(Nc2ncc(F)c(Nc3ccccc3)n2)cc1 (10 µM)
0: all assays above

COc1ccc([C@H]2c3[nH]c4ccc(Cl)cc4c3CCN2C(=O)Oc2ccc(Cl)cc2)cc1 (2.5 µM)
0: all assays above

Cc1cc(Nc2cc3ncccc3c(N[C@@H]3C[C@H]4CC[C@@H](C3)N4CCC#N)n2)n[nH]1 [Izencitinib] (10 µM)
0: all assays above

CCc1cc(O)c(F)cc1-c1ccc2c(-c3nc4c([nH]3)CN(C3CCN(C)CC3)CC4)n[nH]c2c1 [JAK-IN-5 (hydrochloride)] (2 µM)
3: [19] | [20]
4: [6] | [15]
2: [8] | [12]
1: [10] | [14]
0: all other assays above

CC(C)=CC[C@H](O)C1=CC(=O)c2c(O)ccc(O)c2C1=O [(-)-Alkannin] (2.5 µM)
0: all assays above

CN(C)CCN(Cc1ccc(Cl)cc1)c1ccccn1 [Chloropyramine hydrochloride] (10 µM)
0: all assays above

O=C(NCCCNC(=O)Nc1cccc(C2=NCCN2)c1)Nc1cccc(C2=NCCN2)c1 [p32 Inhibitor M36] (10 µM)
0: all assays above

As a short view, 2 of the compounds above.
CN(C)CCN(Cc1ccc(Cl)cc1)c1ccccn1 [Chloropyramine hydrochloride] (10 µM)
0: all assays above

O=C(NCCCNC(=O)Nc1cccc(C2=NCCN2)c1)Nc1cccc(C2=NCCN2)c1 [p32 Inhibitor M36] (10 µM)
0: all assays above

(next part)

O=C(Nc1cccnc1)c1cc(C(=O)c2c(F)cccc2Br)c[nH]1 (10 µM)
0: all assays above

Nc1cc(Nc2ccc(S(N)(=O)=O)cc2)ncn1 (10 µM)
1: [6]
0: all other assays above

CCOc1ccc(C(=O)Nc2ncc([N+](=O)[O-])s2)cc1 (10 µM)
0: all assays above

CC1CN(C(=O)Nc2ccc(Cl)c(Cl)c2)C(=Nc2ccc(F)cc2)S1 (stereo not given) (10 µM)
0: all assays above

COc1ccc(-c2ccc3c(N4CCOC[C@@H]4C)nc(N4CCOC[C@@H]4C)nc3n2)cc1CO (2.5 µM)
0: [2] | [3] | [5] | [11] | [18]
4: [1] | [6] | [7] | [13] | [16] | [17] | [19]
3: all other assays above

COc1ccc(Cn2cc(C(=O)N=Nc3c(O)[nH]c4c(C)cccc34)nn2)cc1 [MARK4 inhibitor 1] (10 µM)
0: all assays above

COc1cc2c[n+](C)c3c4cc5c(cc4ccc3c2cc1OC)OCO5 [Nitidine (chloride)] (2 µM)
0: all assays above

O=c1cc(O)cc(/C=C/c2ccc(O)c(O)c2)o1 [Hispidin] (10 µM)
0: all assays above

Fc1ccc(-c2nc(-c3ccccc3F)[nH]c2-c2ccncc2)cc1 (2.5 µM)
0: all assays above

COC1(C(=O)N2Cc3nc(Cl)nc(N[C@H](C)c4cc(N)cc(C(F)(F)F)c4)c3C2)CCOCC1 (10 µM)
0: all assays above

N[C@H](Cc1c[nH]c2ccccc12)C(=O)N/N=C/c1ccc2nccnc2c1 [Rhosin (hydrochloride)] (10 µM)
0: all assays above

Cc1cc(Nc2cc(Cl)nc(Oc3ccc([N+](=O)[O-])cc3)n2)n[nH]1 [Autophinib] (2.5 µM)
0: all assays above

CC1=C2C(=O)O[C@@H](c3ccoc3)[C@]2(C)CCC1 [Fraxinellone] (10 µM)
0: all assays above

CCN1CCN(Cc2ccc(Nc3ncc(F)c(-c4cc(F)c5nc(CO)n(C(C)C)c5c4)n3)nc2)CC1 [Abemaciclib metabolite M20] (2 µM)
3: [12]
0: all other assays above

CO[C@H]1C[C@@H]2CC[C@@H](C)[C@@](O)(O2)C(=O)C(=O)N2CCCC[C@H]2C(=O)O[C@H]([C@H](C)C[C@@H]2CC[C@@H](O)[C@H](OC)C2)CC(=O)[C@H](C)/C=C(\C)[C@@H](O)[C@@H](OC)C(=O)[C@H](C)C[C@H](C)/C=C/C=C/C=C/1C [Rapamycin] (10 µM)
0: all assays above

Cc1ccc(Nc2cc(-c3cccc(N4C(=O)c5ccccc5C4=O)c3)ncn2)cc1NS(C)(=O)=O (10 µM)
1: [7] | [19]
0: all other assays above
